Experimental data: PubChem BioAssay AID652243 (Drosophila RNAi Screening Center, 2013)

Screen: 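Fly regulators of androgen-dependent reporter output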 (primary screen)
Cell system: Drosophila S2R+ cells
Reagent: long dsRNA against Drosophila genes
Duration: 72 h (48 h, then 24 h hormone)
Conditions: synthetic androgen R1881 at 10 nM for 24 h
Measurement: 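Firefly light from an androgen-responsive reporter and Renilla control light per well, raw and unnormalised, for each of two replicates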
Direction: firefly reporter light: higher = more light from androgen-responsive reporter; Renilla control light: higher = more constitutive control signal (cell number, transfection)
Rule for the call: 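Across duplicate plates, a knock-down whose log firefly/Renilla ratio shifted a set fold down or up from the GFP/LacZ control mean was a hit; the downward cut appears as both 1.5 and 3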
Calls: active = hit: reporter lowered or raised; inactive = no hit
In all, the deposit lists about 24,000 reagents; below is an unselected part of those with a known target gene and a result. In the full data, 246 (1%) are marked active. 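Plates not normalised; calls are printed but the firefly/Renilla ratio behind them is not deposited; fold cut for lowering reported inconsistently.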 Raw values are not corrected between plates. Names joined by + are all predicted targets of the reagent. Not given: the amount of reagent.

no.	gene	PubChem SID	firefly reporter light, replicate 1	firefly reporter light, replicate 2	Renilla control light, replicate 1	Renilla control light, replicate 2	Outcome
1	CG32119	SID104189040	2.83e5	2.54e5	2.69e6	2.82e6	inactive
2	CG32119	SID104201200	7.26e5	6.79e5	2.02e6	1.66e6	inactive
3	CG32119	SID104207666	5.56e5	5.55e5	1.41e6	1.10e6	inactive
4	l(3)mbn	SID104188585	1.85e5	1.36e5	3.24e5	1.93e5	inactive
5	CG12898	SID104186005	3.01e5	1.75e5	1.70e6	1.43e6	inactive
6	CG14982	SID104202379	8.06e5	8.68e5	4.56e5	7.24e5	inactive
7	Ctr1B + Poxm	SID104196037	86089	62447	2.18e6	1.65e6	inactive
8	Vps53	SID104180387	8.44e5	1.02e6	1.83e6	1.68e6	inactive
9	Task7	SID104196269	1.28e5	1.51e5	2.90e6	2.67e6	inactive
10	Task7	SID104205206	4.31e5	4.00e5	6.87e5	6.49e5	inactive
11	CG14160	SID104189953	1.82e5	1.58e5	1.83e6	1.37e6	inactive
12	Rh4	SID104191060	1.08e5	1.27e5	5.45e5	7.68e5	inactive
13	Rh4	SID104205925	3.91e5	3.23e5	8.50e5	9.01e5	inactive
14	CG33128	SID104180086	4.35e5	6.71e5	1.33e6	2.00e6	inactive
15	CG33128	SID104207242	3.60e5	3.32e5	1.17e6	1.34e6	inactive
16	dop	SID104190447	95052	84940	8.96e5	5.67e5	inactive
17	dop	SID104208069	3.46e5	2.71e5	7.96e5	7.96e5	inactive
18	dop	SID104214643					inactive
19	neb	SID104183369	7.91e5	9.85e5	1.75e6	1.86e6	inactive
20	neb	SID104207008	1.89e5	4.77e5	6.61e5	1.27e6	inactive
21	Mst87F	SID104196539	1.47e5	1.62e5	2.01e6	2.51e6	inactive
22	Mst87F	SID104203896	7.00e5	4.96e5	8.18e5	5.40e5	inactive
23	CG16974	SID104182343	5.27e5	5.29e5	1.60e6	1.41e6	inactive
24	CG16974	SID104207303	6.45e5	5.97e5	1.67e6	1.75e6	inactive
25	HLH54F	SID104187230	63585	52500	8.96e5	8.96e5	inactive
26	KaiR1D	SID104195308	1.88e5	3.15e5	3.79e6	3.94e6	inactive
27	CG12498	SID104198427	2.31e5	3.15e5	3.99e6	3.56e6	inactive
28	ppk5	SID104191284	1.21e5	1.06e5	3.66e5	3.32e5	inactive
29	CG30281	SID104184320	1.13e6	5.02e5	1.54e6	9.06e5	inactive
30	CG30281	SID104205349	3.26e5	3.82e5	5.78e5	4.97e5	inactive
31	CG6012	SID104182713	1.72e5	2.86e5	2.14e6	2.65e6	inactive
32	CR44003 + CG44002	SID104180315	8.11e5	9.55e5	1.94e6	1.73e6	inactive
33	CR44003 + CG44002	SID104180398	1.13e5	1.73e5	8.93e5	9.48e5	inactive
34	HemK1	SID104183045	8.97e5	9.90e5	1.51e6	1.68e6	inactive
35	et	SID104199374	1.43e5	1.67e5	4.62e5	5.08e5	inactive
36	Gr2a	SID104198395	2.65e5	4.07e5	4.58e6	3.46e6	inactive
37	snsl	SID104180335	2.33e5	83805	2.36e6	7.85e5	inactive
38	snsl	SID104204258	7.55e5	9.30e5	6.72e5	1.06e6	inactive
39	Cox17	SID104199937	4.02e5	4.26e5	2.58e6	3.24e6	inactive

A stretch taken from the entries so far:
no.	gene	PubChem SID	firefly reporter light, replicate 1	firefly reporter light, replicate 2	Renilla control light, replicate 1	Renilla control light, replicate 2	Outcome
10	Task7	SID104205206	4.31e5	4.00e5	6.87e5	6.49e5	inactive
11	CG14160	SID104189953	1.82e5	1.58e5	1.83e6	1.37e6	inactive
12	Rh4	SID104191060	1.08e5	1.27e5	5.45e5	7.68e5	inactive
13	Rh4	SID104205925	3.91e5	3.23e5	8.50e5	9.01e5	inactive
14	CG33128	SID104180086	4.35e5	6.71e5	1.33e6	2.00e6	inactive
15	CG33128	SID104207242	3.60e5	3.32e5	1.17e6	1.34e6	inactive
16	dop	SID104190447	95052	84940	8.96e5	5.67e5	inactive

Next records:
no.	gene	PubChem SID	firefly reporter light, replicate 1	firefly reporter light, replicate 2	Renilla control light, replicate 1	Renilla control light, replicate 2	Outcome
40	CG10749	SID104189590	2.78e5	1.70e5	1.52e6	1.53e6	inactive
41	CG10749	SID104206200	5.14e5	4.85e5	8.97e5	9.01e5	inactive
42	DhpD	SID104192080	45019	51359	3.17e5	4.33e5	inactive
43	CG34334	SID104216362	8.44e5	9.59e5	1.81e6	2.01e6	inactive
44	CG14204	SID104199351	88869	86215	2.43e5	2.01e5	inactive
45	CG14204	SID104208485	3.91e5	3.97e5	1.05e6	1.10e6	inactive
46	CG8281	SID104190768	1.69e5	1.81e5	1.78e6	1.68e6	inactive
47	CR32511	SID104200489	6.05e5	6.93e5	3.49e6	3.48e6	inactive
48	CG1847	SID104199602	1.06e5	1.07e5	7.78e5	8.44e5	inactive
49	CG8665	SID104182890	2.39e5	2.24e5	1.65e6	1.38e6	inactive
50	CG34129	SID104195752	2.24e5	2.72e5	3.07e6	2.97e6	inactive
51	Cse1	SID104183079	4.08e5	5.80e5	1.33e6	1.72e6	inactive
52	Cse1	SID104205401	3.07e5	2.58e5	2.61e5	4.41e5	inactive
53	Sbat	SID104179952	3.33e5	1.25e5	8.57e5	5.08e5	inactive
54	sra	SID104196807	59907	54278	3.56e5	4.95e5	inactive
55	rn	SID104192335	43689	55167	1.24e6	1.06e6	inactive
56	rn	SID104192336	55286	69694	9.87e5	1.01e6	inactive
57	rn	SID104192338	1.48e5	1.11e5	2.12e6	2.35e6	inactive
58	rn	SID104201807	50762	36222	3.92e5	3.61e5	inactive
59	rn	SID104203619	7.77e5	4.57e5	1.96e6	5.14e5	inactive
60	rn	SID104205755	2.82e5	1.89e5	4.84e5	2.58e5	inactive
